Measurements taken from publication PMC7862700.
This is a selection; strong and weak results do not stand in their true shares. At the low end of the ranking, values are background and their order means little.

Biological target: T1, ELK3 (UniProt P41970)
T1 sequence: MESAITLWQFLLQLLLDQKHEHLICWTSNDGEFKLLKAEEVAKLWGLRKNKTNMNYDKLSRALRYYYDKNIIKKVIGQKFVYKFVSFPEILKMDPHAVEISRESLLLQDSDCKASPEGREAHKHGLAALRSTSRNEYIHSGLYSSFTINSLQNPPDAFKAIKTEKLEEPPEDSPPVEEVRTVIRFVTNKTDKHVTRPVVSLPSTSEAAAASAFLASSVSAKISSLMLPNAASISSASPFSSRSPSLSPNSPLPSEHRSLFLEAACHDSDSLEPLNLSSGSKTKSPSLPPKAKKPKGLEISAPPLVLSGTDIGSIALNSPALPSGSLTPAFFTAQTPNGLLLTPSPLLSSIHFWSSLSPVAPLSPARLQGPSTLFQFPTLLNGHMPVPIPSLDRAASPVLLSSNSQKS
Assay: DAPPL (digital affinity profiling via proximity ligation, sequencing)
Conditions: 10 mM Tris-HCl pH 7.5, 50 mM NaCl, 1 mM DTT, 4% glycerol, room temperature, 30 min; GST-TFs on glutathione beads, 16-mer random dsDNA library, 0.1% …; high values mean tight binding; double strand, one strand shown; scale: fold enrichment (6-mer frequency, TF over GST control)

Row | Sequence | binding signal
1 | CATTCA | 1.16
2 | CCCTTC | 1.44
3 | AGTTAA | 1.04
4 | GTTCCC | 1.23
5 | GCACTA | 1.23
6 | TGCGTT | 1.13
7 | TTCAAT | 1.26
8 | GATTCA | 1.1
9 | CTCCAT | 1.36
10 | CAACAC | 0.981
11 | CGCTTG | 1.07
12 | TAGATT | 0.994
13 | CATCTC | 1.22
14 | CTAACC | 1.29
15 | CTGATT | 1.21
16 | AACATT | 1.25
17 | TATGCC | 0.997
18 | TCCGCA | 2.24
19 | CTACCC | 1.31
20 | TAGTAG | 0.973

Row | Sequence | binding signal
21 | GAAATT | 1.28
22 | ATAATC | 1.17
23 | GCCGCC | 1.15
24 | ATATAT | 1.4
25 | GAACAA | 1.2
26 | TTTCAC | 1.39
27 | ACATGT | 1.06
28 | TCAAAT | 1.03
29 | GCCCCG | 0.878
30 | CATTTT | 1.15
31 | GTCTCC | 1.56
32 | ATTATC | 1.32
33 | GATGGG | 0.979
34 | AAGCAA | 0.938
35 | TCTGTG | 0.999
36 | AACCCG | 1.49
37 | GATATG | 1.04
38 | CTCTAC | 1.27
39 | TTTGTA | 1.51

Rewritten comma-delimited: entries from further up.
Row,Sequence,binding signal
21,GAAATT,1.28
22,ATAATC,1.17
